# Measurements as given in the supplement of paper PMC8728848.
# The other results are listed elsewhere or left out.
# B1: PX14404-bvu-534-26-534 (Bacteroides vulgatus) (protein)
# chain: EDPRGKLTPENFFSTQDELNMSIYALYQKVNLSQVYTNMQLPQWQGDDITTNPGSNKQPAAEMDKFAAANNNKGVKDAWNMHYAIVKAANLIIQGASKTPTTQDEINIALGQAKFWRAYAYFTLVRLWGPLPMNLDNVNDDYTKPLSPVEEVYGHIVQDLTEAEAVLPTGYSGSPRFLNGVNVYVTRQAAKSTLAAVYMAMAGWPMNKTEYYAKAAEKAKEVIEGVNRGEYEYKLDKDYKDVYAMSNNYNNETVLGINYSPFVDWAQDSELTSCNQFESLGGWGDAWGEIRFWKEFPDGPRKDATYDPKIRLKDGTLVDWWELKEDGTPVVPEHHPMFSIFSVNWDPASKVNTSAPYDYTKPASQNMCNDHRHRIIRYSEVLLWYAEAKARTGQTDELAFKCLNDVRERAGLEPLTGLSADDLAEAAYKEHGWEVAGYWVALVTRRADQFRMNRLKDTFKERAENTAVEVADGILVKESVEYTNRTWSDNLMYLPYPDMDSQKNPNLVR
# Key:
# Assay in all cases: glycan array binding signal (z-score within array); higher = stronger binding
# Conditions in all cases: glycan notation: IUPAC condensed, linker removed
# [1] = target: Neu5Ac(a2-3)Gal(b1-3)GalNAc
# Summary of the method: (§1)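 Arrays were curated from the Consortium for Functional Glycomics database, 3228 in total, and kept only where the protein sequence was available. Binding is expressed as a within-array Z-score. This score was averaged across arrays of the same protein sequence at different concentrations or buffers and across linkers, and negative values can be read as non-binding.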
# [2] = target: Neu5Ac(a2-3)Gal(b1-3)GalNAc(b1-3)Gal(a1-4)Gal(b1-4)Glc
# Summary of the method: as §1
# [3] = target: Neu5Ac(a2-3)Gal(b1-3)GalNAc(b1-4)[Neu5Ac(a2-3)]Gal(b1-4)Glc
# Summary of the method: as §1
# [4] = target: Neu5Ac(a2-3)Gal(b1-3)GalNAc(b1-4)[Neu5Ac(a2-8)Neu5Ac(a2-3)]Gal(b1-4)Glc
# Summary of the method: as §1
# [5] = target: Neu5Ac(a2-3)Gal(b1-3)GalNAc6S
# Summary of the method: as §1
# [6] = target: Neu5Ac(a2-3)Gal(b1-3)GlcNAc
# Summary of the method: as §1
# [7] = target: Neu5Ac(a2-3)Gal(b1-3)GlcNAc(b1-2)Man
# Summary of the method: as §1
# [8] = target: Neu5Ac(a2-3)Gal(b1-3)GlcNAc(b1-2)Man(a1-3)[GlcNAc(b1-4)][Neu5Ac(a2-3)Gal(b1-3)GlcNAc(b1-2)Man(a1-6)]Man(b1-4)GlcNAc(b1-4)GlcNAc
# Summary of the method: as §1
# [9] = target: Neu5Ac(a2-3)Gal(b1-3)GlcNAc(b1-2)Man(a1-3)[Neu5Ac(a2-3)Gal(b1-3)GlcNAc(b1-2)Man(a1-6)]Man(b1-4)GlcNAc(b1-4)GlcNAc
# Summary of the method: as §1
# [10] = target: Neu5Ac(a2-3)Gal(b1-3)GlcNAc(b1-3)Gal(b1-3)GlcNAc
# Summary of the method: as §1
# [11] = target: Neu5Ac(a2-3)Gal(b1-3)GlcNAc(b1-3)Gal(b1-4)GlcNAc
# Summary of the method: as §1
# [12] = target: Neu5Ac(a2-3)Gal(b1-3)GlcNAc(b1-3)GalNAc
# Summary of the method: as §1
# [13] = target: Neu5Ac(a2-3)Gal(b1-3)GlcNAc(b1-4)Gal(b1-4)Glc
# Summary of the method: as §1
# [14] = target: Neu5Ac(a2-3)Gal(b1-3)GlcNAc(b1-6)GalNAc
# Summary of the method: as §1
# [15] = target: Neu5Ac(a2-3)Gal(b1-3)GlcNAc6S
# Summary of the method: as §1
# [16] = target: Neu5Ac(a2-3)Gal(b1-3)[Fuc(a1-4)]GlcNAc
# Summary of the method: as §1
# [17] = target: Neu5Ac(a2-3)Gal(b1-3)[Fuc(a1-4)]GlcNAc(b1-3)Gal(b1-3)[Fuc(a1-4)]GlcNAc
# Summary of the method: as §1
# [18] = target: Neu5Ac(a2-3)Gal(b1-3)[Fuc(a1-4)]GlcNAc(b1-3)Gal(b1-4)[Fuc(a1-3)]GlcNAc
# Summary of the method: as §1
# [19] = target: Neu5Ac(a2-3)Gal(b1-3)[GlcNAc(b1-6)]GalNAc
# Summary of the method: as §1
# [20] = target: Neu5Ac(a2-3)Gal(b1-3)[Neu5Ac(a2-6)]GalNAc
# Summary of the method: as §1
# [21] = target: Neu5Ac(a2-3)Gal(b1-3)[Neu5Ac(a2-6)]GlcNAc(b1-3)[Fuc(a1-3)[Gal(b1-4)]GlcNAc(b1-6)]Gal(b1-4)Glc
# Summary of the method: as §1
# [22] = target: Neu5Ac(a2-3)Gal(b1-3)]Neu5Ac(a2-3)Gal(b1-4)]GlcNAc
# Summary of the method: as §1
# Neu5Ac(a2-3)Gal(b1-4)Glc = target: Neu5Ac(a2-3)Gal(b1-4)Glc
# Summary of the method: as §1
# [23] = target: Neu5Ac(a2-3)Gal(b1-4)GlcNAc
# Summary of the method: as §1
# [24] = target: Neu5Ac(a2-3)Gal(b1-4)GlcNAc(b1-2)Man
# Summary of the method: as §1
# [25] = target: Neu5Ac(a2-3)Gal(b1-4)GlcNAc(b1-2)Man(a1-3)[GlcNAc(b1-4)][Neu5Ac(a2-3)Gal(b1-4)GlcNAc(b1-2)Man(a1-6)]Man(b1-4)GlcNAc(b1-4)GlcNAc
# Summary of the method: as §1
# [26] = target: Neu5Ac(a2-3)Gal(b1-4)GlcNAc(b1-2)Man(a1-3)[Neu5Ac(a2-3)Gal(b1-4)GlcNAc(b1-2)Man(a1-6)]Man(b1-4)GlcNAc(b1-4)GlcNAc
# Summary of the method: as §1
# [27] = target: Neu5Ac(a2-3)Gal(b1-4)GlcNAc(b1-2)Man(a1-3)[Neu5Ac(a2-3)Gal(b1-4)GlcNAc(b1-2)Man(a1-6)]Man(b1-4)GlcNAc(b1-4)[Fuc(a1-6)]GlcNAc
# Summary of the method: as §1
# [28] = target: Neu5Ac(a2-3)Gal(b1-4)GlcNAc(b1-2)Man(a1-3)[Neu5Ac(a2-6)Gal(b1-4)GlcNAc(b1-2)Man(a1-6)]Man(b1-4)GlcNAc(b1-4)GlcNAc
# Summary of the method: as §1
# [29] = target: Neu5Ac(a2-3)Gal(b1-4)GlcNAc(b1-2)[Neu5Ac(a2-3)Gal(b1-4)GlcNAc(b1-4)]Man(a1-3)[GlcNAc(b1-4)][Neu5Ac(a2-3)Gal(b1-4)GlcNAc(b1-2)[Neu5Ac(a2-3)Gal(b1-4)GlcNAc(b1-6)]Man(a1-6)]Man(b1-4)GlcNAc(b1-4)GlcNAc
# Summary of the method: as §1
# [30] = target: Neu5Ac(a2-3)Gal(b1-4)GlcNAc(b1-2)[Neu5Ac(a2-3)Gal(b1-4)GlcNAc(b1-4)]Man(a1-3)[GlcNAc(b1-4)][Neu5Ac(a2-3)Gal(b1-4)GlcNAc(b1-4)Man(a1-6)]Man(b1-4)GlcNAc(b1-4)GlcNAc
# Summary of the method: as §1
# [31] = target: Neu5Ac(a2-3)Gal(b1-4)GlcNAc(b1-2)[Neu5Ac(a2-3)Gal(b1-4)GlcNAc(b1-6)]Man(a1-6)[Neu5Ac(a2-3)Gal(b1-4)GlcNAc(b1-2)Man(a1-3)]Man(b1-4)GlcNAc(b1-4)GlcNAc
# Summary of the method: as §1
# [32] = target: Neu5Ac(a2-3)Gal(b1-4)GlcNAc(b1-2)[Neu5Ac(a2-3)Gal(b1-4)GlcNAc(b1-6)]Man(a1-6)[Neu5Ac(a2-3)Gal(b1-4)GlcNAc(b1-2)Man(a1-3)][GlcNAc(b1-4)]Man(b1-4)GlcNAc(b1-4)GlcNAc
# Summary of the method: as §1
# [33] = target: Neu5Ac(a2-3)Gal(b1-4)GlcNAc(b1-3)Gal
# Summary of the method: as §1
# [34] = target: Neu5Ac(a2-3)Gal(b1-4)GlcNAc(b1-3)Gal(b1-3)GlcNAc
# Summary of the method: as §1
# [35] = target: Neu5Ac(a2-3)Gal(b1-4)GlcNAc(b1-3)Gal(b1-4)GlcNAc
# Summary of the method: as §1
# [36] = target: Neu5Ac(a2-3)Gal(b1-4)GlcNAc(b1-3)Gal(b1-4)GlcNAc(b1-2)Man(a1-3)[Neu5Ac(a2-3)Gal(b1-4)GlcNAc(b1-3)Gal(b1-4)GlcNAc(b1-2)Man(a1-6)]Man(b1-4)GlcNAc(b1-4)GlcNAc
# Summary of the method: as §1
binder,measurement,setting,value
B1,glycan array binding signal (z-score),[1],-0.385
same,glycan array binding signal (z-score),[2],0.877
same,glycan array binding signal (z-score),[3],1.67
same,glycan array binding signal (z-score),[4],-0.197
same,glycan array binding signal (z-score),[5],0.267
same,glycan array binding signal (z-score),[6],0.177
same,glycan array binding signal (z-score),[7],1.81
same,glycan array binding signal (z-score),[8],-0.618
same,glycan array binding signal (z-score),[9],-0.193
same,glycan array binding signal (z-score),[10],-1.2
same,glycan array binding signal (z-score),[11],-0.891
same,glycan array binding signal (z-score),[12],0.366
same,glycan array binding signal (z-score),[13],-0.846
same,glycan array binding signal (z-score),[14],-0.09
same,glycan array binding signal (z-score),[15],0.354
same,glycan array binding signal (z-score),[16],1.02
same,glycan array binding signal (z-score),[17],-1.01
same,glycan array binding signal (z-score),[18],-0.247
same,glycan array binding signal (z-score),[19],-0.253
same,glycan array binding signal (z-score),[20],0.182
same,glycan array binding signal (z-score),[21],-1.47
same,glycan array binding signal (z-score),[22],0.642
same,glycan array binding signal (z-score),Neu5Ac(a2-3)Gal(b1-4)Glc,-0.255
same,glycan array binding signal (z-score),[23],-0.096
same,glycan array binding signal (z-score),[24],-0.809
same,glycan array binding signal (z-score),[25],-0.235
same,glycan array binding signal (z-score),[26],-0.066
same,glycan array binding signal (z-score),[27],-0.073
same,glycan array binding signal (z-score),[28],0.576
same,glycan array binding signal (z-score),[29],-0.764
same,glycan array binding signal (z-score),[30],0.216
same,glycan array binding signal (z-score),[31],-0.695
same,glycan array binding signal (z-score),[32],-0.687
same,glycan array binding signal (z-score),[33],-1.05
same,glycan array binding signal (z-score),[34],-0.301
same,glycan array binding signal (z-score),[35],-0.385
same,glycan array binding signal (z-score),[36],-0.044

# Three consecutive records out of the list so far, for reference:
binder,measurement,setting,value
B1,glycan array binding signal (z-score),[2],0.877
same,glycan array binding signal (z-score),[3],1.67
same,glycan array binding signal (z-score),[4],-0.197
